Results from patent publication US20030143568A1.
No constants are given. Whether binding was seen depends on the method and setting. In cells and extracts the contact can be indirect. Some binding calls cover weakened binding; strength is not graded here. Sequences can lack the tags named with a protein.

Chains of the proteins cited; added tags and fusions are not shown. Lines headed by an entry give the natural chain unless they say otherwise; changes in a name come on top.
UniProt P21860: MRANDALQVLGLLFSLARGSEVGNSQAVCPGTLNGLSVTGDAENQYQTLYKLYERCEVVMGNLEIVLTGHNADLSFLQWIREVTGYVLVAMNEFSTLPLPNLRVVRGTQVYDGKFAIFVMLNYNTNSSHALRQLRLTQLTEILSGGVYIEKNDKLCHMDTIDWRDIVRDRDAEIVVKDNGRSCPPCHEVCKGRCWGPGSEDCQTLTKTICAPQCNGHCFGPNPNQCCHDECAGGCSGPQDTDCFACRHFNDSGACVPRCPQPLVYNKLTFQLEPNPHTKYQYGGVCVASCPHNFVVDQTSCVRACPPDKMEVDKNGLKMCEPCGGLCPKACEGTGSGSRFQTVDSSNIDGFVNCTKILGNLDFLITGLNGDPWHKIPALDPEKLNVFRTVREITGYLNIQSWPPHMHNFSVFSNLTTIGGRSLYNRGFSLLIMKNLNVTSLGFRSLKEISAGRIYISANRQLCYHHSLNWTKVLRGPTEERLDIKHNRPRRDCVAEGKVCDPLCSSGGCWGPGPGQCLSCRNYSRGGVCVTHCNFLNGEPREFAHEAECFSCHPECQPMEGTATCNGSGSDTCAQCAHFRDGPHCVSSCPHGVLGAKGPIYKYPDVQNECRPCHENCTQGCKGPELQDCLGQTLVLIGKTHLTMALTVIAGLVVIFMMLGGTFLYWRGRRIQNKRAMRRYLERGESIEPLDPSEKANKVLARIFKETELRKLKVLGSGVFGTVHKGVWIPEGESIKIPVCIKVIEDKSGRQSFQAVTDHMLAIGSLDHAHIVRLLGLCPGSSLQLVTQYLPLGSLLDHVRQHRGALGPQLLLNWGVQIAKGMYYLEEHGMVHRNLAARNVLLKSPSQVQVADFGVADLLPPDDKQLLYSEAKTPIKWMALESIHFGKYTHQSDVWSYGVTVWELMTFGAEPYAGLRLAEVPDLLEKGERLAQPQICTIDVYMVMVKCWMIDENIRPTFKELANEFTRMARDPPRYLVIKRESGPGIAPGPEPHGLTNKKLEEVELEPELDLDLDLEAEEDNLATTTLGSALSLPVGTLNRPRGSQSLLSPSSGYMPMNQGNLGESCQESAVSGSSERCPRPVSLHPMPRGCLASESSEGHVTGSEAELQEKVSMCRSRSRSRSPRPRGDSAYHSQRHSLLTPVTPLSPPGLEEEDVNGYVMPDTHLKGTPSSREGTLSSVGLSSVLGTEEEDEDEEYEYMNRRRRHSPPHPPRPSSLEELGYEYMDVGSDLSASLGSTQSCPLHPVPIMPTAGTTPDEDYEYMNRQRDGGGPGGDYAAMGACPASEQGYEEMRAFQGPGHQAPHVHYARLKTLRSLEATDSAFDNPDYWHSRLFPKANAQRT

Assays:
[1] = molecular target: T1, thioredoxin-heregulin fusion with a C-terminal His and S-tag (trx-hrg) (human); test: pull-down on agarose-bound hrg (FIG. 2B)
T1 sequence: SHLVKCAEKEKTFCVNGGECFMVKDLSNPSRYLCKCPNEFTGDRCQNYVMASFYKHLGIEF

[2] = molecular target: T1, thioredoxin-heregulin fusion with a C-terminal His and S-tag (trx-hrg) (human); test: pull-down on trx-hrg coupled S-protein agarose
[3] = molecular target: T1, thioredoxin-heregulin fusion with a C-terminal His and S-tag (trx-hrg) (human); test: pull-down on immobilized S-tagged hrg (FIG. 12B)

binding [1]	binding [2]	binding [3]	Substance
binds	binds		HER3-ECD^I-IV that was protected by hrg during proteolytic digestion (from UniProt P21860 20-270; P21860 271-643) (receptor)
	binds	binds	HER3^I-IV (residues 20-643) in the pMT/BiP/V5-His-A expression vector (from UniProt P21860 20-643) (receptor)
binds	binds		Soluble extracellular domains of recombinant HER3 (HER3-ECD^I-IV), purified from Chinese hamster ovary cells (from UniProt P21860 20-643) (receptor)
